# Experimental data reported in the supplement of paper PMC12823440, “Inhibitors supercharge kinase turnover through native proteolytic circuits” (Nature, 2025).
# Chains of the proteins cited; added tags and fusions are not shown. Lines headed by an entry give the natural chain unless they say otherwise; changes in a name come on top.
# UniProt O15530: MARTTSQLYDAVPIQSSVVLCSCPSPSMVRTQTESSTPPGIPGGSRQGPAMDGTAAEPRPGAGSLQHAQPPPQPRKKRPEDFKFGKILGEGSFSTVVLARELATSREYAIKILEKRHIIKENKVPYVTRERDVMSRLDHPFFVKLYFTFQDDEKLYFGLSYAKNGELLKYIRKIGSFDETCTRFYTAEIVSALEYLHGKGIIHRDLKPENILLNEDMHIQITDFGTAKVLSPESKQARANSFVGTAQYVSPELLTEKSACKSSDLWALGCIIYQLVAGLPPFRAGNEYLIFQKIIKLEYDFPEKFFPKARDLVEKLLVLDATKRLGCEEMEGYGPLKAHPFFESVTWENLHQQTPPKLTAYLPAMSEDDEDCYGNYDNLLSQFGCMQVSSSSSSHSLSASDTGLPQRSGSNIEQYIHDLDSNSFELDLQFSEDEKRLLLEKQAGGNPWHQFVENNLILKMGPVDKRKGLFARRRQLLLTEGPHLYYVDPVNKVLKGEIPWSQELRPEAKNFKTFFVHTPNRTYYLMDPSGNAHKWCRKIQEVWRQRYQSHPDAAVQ
# UniProt Q13131: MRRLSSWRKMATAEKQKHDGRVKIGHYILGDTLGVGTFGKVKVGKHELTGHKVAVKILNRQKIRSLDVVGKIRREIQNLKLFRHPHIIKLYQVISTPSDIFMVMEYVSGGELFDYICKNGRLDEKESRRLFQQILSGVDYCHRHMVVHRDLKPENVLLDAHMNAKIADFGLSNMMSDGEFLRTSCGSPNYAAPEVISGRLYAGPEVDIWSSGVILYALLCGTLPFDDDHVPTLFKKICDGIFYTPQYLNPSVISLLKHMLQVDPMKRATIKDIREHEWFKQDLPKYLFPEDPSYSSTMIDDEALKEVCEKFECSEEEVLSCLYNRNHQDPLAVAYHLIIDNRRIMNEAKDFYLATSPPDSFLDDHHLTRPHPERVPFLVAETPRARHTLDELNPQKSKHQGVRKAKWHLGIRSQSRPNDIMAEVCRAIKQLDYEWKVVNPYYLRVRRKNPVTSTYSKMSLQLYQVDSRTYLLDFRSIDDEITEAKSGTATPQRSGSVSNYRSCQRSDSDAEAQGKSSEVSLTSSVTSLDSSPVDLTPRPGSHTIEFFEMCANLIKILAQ
# UniProt Q05397, whole entry, looked up: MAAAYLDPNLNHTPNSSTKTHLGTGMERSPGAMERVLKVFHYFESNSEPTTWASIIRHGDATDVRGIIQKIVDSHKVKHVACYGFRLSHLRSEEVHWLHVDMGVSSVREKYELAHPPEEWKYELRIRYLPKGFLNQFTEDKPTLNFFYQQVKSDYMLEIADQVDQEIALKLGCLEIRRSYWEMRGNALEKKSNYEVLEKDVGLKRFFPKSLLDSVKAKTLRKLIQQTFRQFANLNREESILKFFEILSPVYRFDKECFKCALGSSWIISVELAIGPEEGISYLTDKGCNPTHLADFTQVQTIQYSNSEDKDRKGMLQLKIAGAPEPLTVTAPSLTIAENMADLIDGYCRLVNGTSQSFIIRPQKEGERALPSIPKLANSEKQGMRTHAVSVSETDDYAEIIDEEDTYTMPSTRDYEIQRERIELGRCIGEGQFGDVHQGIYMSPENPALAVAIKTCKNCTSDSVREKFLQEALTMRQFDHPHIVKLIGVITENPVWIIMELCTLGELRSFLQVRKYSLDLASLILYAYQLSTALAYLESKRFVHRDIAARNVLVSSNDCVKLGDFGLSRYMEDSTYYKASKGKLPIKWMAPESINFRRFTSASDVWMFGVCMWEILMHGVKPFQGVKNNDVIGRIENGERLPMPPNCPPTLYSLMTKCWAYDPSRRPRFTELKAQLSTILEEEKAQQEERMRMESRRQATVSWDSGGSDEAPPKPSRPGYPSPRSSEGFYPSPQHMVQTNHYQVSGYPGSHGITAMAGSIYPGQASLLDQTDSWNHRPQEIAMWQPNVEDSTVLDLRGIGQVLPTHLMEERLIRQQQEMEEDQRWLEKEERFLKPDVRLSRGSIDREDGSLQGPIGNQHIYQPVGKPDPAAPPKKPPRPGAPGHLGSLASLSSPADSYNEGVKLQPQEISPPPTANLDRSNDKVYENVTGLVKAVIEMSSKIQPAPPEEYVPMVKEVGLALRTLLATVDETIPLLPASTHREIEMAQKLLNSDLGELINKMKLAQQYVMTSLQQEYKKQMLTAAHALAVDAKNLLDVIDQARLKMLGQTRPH
# UniProt P07949, whole entry, looked up: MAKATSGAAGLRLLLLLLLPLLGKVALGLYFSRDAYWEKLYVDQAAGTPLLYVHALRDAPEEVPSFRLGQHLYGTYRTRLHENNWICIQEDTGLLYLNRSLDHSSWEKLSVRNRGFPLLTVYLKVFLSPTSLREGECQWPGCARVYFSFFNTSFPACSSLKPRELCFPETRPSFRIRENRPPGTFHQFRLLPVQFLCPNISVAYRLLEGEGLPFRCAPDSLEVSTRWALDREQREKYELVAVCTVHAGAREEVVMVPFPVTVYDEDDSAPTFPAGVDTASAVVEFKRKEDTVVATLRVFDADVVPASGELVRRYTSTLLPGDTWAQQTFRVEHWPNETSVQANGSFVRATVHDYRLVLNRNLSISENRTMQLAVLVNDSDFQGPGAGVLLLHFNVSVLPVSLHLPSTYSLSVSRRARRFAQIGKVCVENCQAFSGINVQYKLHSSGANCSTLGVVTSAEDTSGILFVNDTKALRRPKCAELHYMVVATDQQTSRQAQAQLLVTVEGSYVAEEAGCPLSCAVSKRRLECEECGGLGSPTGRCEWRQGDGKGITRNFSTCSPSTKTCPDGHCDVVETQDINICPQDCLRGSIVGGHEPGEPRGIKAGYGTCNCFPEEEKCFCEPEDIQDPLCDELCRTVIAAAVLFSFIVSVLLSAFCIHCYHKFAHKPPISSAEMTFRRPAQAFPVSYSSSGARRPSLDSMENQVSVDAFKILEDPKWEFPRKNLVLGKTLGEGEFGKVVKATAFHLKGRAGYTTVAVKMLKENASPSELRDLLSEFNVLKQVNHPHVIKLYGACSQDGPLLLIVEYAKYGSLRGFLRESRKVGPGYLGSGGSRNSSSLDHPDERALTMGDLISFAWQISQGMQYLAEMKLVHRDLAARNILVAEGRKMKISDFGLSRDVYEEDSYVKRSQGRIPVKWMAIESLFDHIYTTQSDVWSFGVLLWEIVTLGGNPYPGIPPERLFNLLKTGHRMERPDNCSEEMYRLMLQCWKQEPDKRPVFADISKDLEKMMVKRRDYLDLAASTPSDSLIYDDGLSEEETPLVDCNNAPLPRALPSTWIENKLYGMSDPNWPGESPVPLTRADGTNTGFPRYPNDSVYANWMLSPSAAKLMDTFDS
# UniProt P07949, whole entry M918T, looked up: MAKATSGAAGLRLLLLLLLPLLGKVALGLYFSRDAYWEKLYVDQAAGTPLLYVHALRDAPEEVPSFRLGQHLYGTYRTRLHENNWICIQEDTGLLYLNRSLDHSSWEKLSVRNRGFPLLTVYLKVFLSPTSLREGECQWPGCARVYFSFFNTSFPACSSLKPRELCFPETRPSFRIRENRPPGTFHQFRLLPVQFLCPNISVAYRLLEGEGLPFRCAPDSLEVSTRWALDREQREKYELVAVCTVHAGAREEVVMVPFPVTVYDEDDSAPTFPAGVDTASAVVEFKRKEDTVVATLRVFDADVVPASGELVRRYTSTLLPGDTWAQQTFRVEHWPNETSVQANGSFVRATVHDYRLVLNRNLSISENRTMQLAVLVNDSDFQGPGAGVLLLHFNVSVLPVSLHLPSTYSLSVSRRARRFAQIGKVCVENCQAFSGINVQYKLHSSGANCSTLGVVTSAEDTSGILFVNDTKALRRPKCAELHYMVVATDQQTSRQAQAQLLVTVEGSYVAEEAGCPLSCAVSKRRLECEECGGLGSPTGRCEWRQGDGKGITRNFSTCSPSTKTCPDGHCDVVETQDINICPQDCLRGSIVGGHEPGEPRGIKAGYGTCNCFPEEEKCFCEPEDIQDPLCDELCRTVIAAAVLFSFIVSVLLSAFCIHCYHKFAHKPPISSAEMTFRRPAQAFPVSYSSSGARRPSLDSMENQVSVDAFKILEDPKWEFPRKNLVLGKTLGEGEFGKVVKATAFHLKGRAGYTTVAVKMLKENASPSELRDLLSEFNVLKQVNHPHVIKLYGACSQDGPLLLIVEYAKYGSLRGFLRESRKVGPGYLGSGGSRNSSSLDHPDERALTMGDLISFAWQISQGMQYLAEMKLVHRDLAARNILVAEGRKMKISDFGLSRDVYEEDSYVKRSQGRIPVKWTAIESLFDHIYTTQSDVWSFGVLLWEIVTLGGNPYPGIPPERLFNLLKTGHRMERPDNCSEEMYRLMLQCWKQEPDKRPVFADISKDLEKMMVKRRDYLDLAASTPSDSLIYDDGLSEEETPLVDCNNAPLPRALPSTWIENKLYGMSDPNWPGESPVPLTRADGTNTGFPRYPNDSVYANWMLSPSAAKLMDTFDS
# UniProt Q9BRS2: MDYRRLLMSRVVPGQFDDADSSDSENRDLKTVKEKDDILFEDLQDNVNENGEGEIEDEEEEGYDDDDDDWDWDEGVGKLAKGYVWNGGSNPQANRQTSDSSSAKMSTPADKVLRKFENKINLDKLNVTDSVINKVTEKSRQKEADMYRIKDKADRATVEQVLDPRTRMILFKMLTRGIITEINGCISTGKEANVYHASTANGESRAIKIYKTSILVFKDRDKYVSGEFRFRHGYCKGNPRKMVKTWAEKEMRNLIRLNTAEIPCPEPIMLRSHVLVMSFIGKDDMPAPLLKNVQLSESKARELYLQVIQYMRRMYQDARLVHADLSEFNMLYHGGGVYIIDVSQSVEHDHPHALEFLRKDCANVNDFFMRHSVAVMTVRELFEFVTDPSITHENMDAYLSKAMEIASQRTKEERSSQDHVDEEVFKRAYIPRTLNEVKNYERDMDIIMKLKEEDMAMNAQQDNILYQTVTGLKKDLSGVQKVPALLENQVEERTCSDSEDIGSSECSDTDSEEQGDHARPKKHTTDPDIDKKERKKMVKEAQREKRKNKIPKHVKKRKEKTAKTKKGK
# UniProt Q13546: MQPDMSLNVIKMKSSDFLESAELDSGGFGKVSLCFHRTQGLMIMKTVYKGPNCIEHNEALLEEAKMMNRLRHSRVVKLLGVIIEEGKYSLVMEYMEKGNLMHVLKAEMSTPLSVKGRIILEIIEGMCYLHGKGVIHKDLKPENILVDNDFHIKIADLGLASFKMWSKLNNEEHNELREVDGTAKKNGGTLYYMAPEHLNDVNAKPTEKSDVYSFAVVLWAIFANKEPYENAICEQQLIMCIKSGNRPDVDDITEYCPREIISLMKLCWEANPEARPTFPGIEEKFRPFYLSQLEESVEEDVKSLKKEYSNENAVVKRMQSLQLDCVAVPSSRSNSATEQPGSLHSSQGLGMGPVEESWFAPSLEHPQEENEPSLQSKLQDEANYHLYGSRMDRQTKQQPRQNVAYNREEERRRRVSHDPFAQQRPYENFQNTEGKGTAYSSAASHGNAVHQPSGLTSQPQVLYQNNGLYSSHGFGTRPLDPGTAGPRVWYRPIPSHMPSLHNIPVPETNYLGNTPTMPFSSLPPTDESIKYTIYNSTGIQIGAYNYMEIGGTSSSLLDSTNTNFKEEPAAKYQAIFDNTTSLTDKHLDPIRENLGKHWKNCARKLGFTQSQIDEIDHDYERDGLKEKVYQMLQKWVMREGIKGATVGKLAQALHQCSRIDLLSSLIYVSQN
# UniProt Q15418, whole entry: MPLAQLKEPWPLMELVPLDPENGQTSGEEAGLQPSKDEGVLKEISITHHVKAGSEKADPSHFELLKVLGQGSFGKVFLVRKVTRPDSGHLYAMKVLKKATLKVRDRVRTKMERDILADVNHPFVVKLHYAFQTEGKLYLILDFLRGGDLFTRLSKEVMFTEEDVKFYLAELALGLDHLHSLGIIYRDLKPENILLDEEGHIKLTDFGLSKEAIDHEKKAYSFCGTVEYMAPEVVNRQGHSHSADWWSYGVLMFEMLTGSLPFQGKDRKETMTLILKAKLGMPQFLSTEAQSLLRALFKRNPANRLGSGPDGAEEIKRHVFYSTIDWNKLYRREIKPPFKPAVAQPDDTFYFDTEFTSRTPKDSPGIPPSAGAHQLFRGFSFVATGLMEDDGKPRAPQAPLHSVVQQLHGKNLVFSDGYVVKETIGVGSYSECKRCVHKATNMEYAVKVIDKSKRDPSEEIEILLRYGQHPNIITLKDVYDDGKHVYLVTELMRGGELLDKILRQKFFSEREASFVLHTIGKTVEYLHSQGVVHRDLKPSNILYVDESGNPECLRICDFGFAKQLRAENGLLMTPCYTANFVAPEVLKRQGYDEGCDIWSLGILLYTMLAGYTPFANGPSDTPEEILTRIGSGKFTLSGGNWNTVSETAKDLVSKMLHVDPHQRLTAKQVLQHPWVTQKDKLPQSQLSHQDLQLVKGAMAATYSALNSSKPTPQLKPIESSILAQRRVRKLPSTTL
# Counter-ions that a name gives are not always drawn. The list shows a part of the results. The calls rarely recur for the same compound in another form.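 In K562 cells expressing nanoluciferase-fused kinases, luminescence was recorded at 4 h intervals between 2 and 18 h, normalized as percent of control with DMSO at 100% and a positive control at 0%. A significant (2 sigma) signal drop marks a time point as decreased. The authors' rule for a hit is not shown and takes in more than the number of time points.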
# Tests used:
# Test in all cases: kinase-Nluc reporter destabilization hit call (1 = scored as downregulated) (binary); higher = compound decreases kinase abundance
# Settings in all cases: K562; 2-18 h
# PDPK1 = PDPK1 (UniProt O15530)
# PIK4CA = PIK4CA (UniProt P42356)
# PIK4CB = PIK4CB (UniProt Q9UBF8)
# PLK1 = PLK1 (UniProt P53350)
# PRKAA1 = PRKAA1 (UniProt Q13131)
# PRKCA = PRKCA (UniProt P17252)
# PTK2 = PTK2 (UniProt Q05397)
# PTK2B = PTK2B (UniProt Q14289)
# RAF1 = RAF1 (UniProt P04049)
# [1] = biological target: RAF1_S257L (clone: RAF1_mut) (UniProt P04049)
# RET = RET (UniProt P07949)
# [2] = biological target: RET_M918T (clone: RET_mut) (UniProt P07949)
# RIOK1 = RIOK1 (UniProt Q9BRS2)
# RIPK1 = RIPK1 (UniProt Q13546)
# RIPK2 = RIPK2 (UniProt O43353)
# ROR2 = ROR2 (UniProt Q01974)
# RPS6KA1 = RPS6KA1 (UniProt Q15418)
# SPHK1 = SPHK1 (UniProt Q9NYA1)
# SRC = SRC (UniProt P12931)
# STK24 = STK24 (UniProt Q9Y6E0)
SMILES,kinase-Nluc reporter destabilization hit call (PDPK1),kinase-Nluc reporter destabilization hit call (PIK4CA),kinase-Nluc reporter destabilization hit call (PIK4CB),kinase-Nluc reporter destabilization hit call (PLK1),kinase-Nluc reporter destabilization hit call (PRKAA1),kinase-Nluc reporter destabilization hit call (PRKCA),kinase-Nluc reporter destabilization hit call (PTK2),kinase-Nluc reporter destabilization hit call (PTK2B),kinase-Nluc reporter destabilization hit call (RAF1),kinase-Nluc reporter destabilization hit call [1],kinase-Nluc reporter destabilization hit call (RET),kinase-Nluc reporter destabilization hit call [2],kinase-Nluc reporter destabilization hit call (RIOK1),kinase-Nluc reporter destabilization hit call (RIPK1),kinase-Nluc reporter destabilization hit call (RIPK2),kinase-Nluc reporter destabilization hit call (ROR2),kinase-Nluc reporter destabilization hit call (RPS6KA1),kinase-Nluc reporter destabilization hit call (SPHK1),kinase-Nluc reporter destabilization hit call (SRC),kinase-Nluc reporter destabilization hit call (STK24)
C[C@]1(O)C[C@@](N)(c2ccc(-c3nc4n(c3-c3ccccc3)COc3ccncc3-4)cc2)C1 [TAS-117 (hydrochloride)] (10 µM),inactive: 0,inactive: 0,inactive: 0,inactive: 0,inactive: 0,inactive: 0,inactive: 0,inactive: 0,inactive: 0,inactive: 0,inactive: 0,inactive: 0,inactive: 0,inactive: 0,inactive: 0,inactive: 0,inactive: 0,inactive: 0,inactive: 0,inactive: 0
C=CC(=O)Nc1cccc(Oc2nc(Nc3ccc(N4CCN(C)CC4)cc3)ncc2Cl)c1 (2.5 µM),inactive: 0,inactive: 0,inactive: 0,inactive: 0,inactive: 0,inactive: 0,inactive: 0,inactive: 0,inactive: 0,inactive: 0,inactive: 0,inactive: 0,inactive: 0,inactive: 0,inactive: 0,inactive: 0,inactive: 0,inactive: 0,inactive: 0,inactive: 0
CC(=O)Nc1nc(C)c(-c2ccc(Cl)c(S(=O)(=O)NCCO)c2)s1 (10 µM),inactive: 0,inactive: 0,inactive: 0,inactive: 0,inactive: 0,inactive: 0,inactive: 0,inactive: 0,inactive: 0,inactive: 0,inactive: 0,inactive: 0,inactive: 0,inactive: 0,inactive: 0,inactive: 0,inactive: 0,inactive: 0,inactive: 0,inactive: 0
CC(C)(C)NS(=O)(=O)c1cncc(-c2cc(F)c3nc(N)nn3c2)c1 (10 µM),inactive: 0,inactive: 0,inactive: 0,inactive: 0,inactive: 0,inactive: 0,inactive: 0,inactive: 0,inactive: 0,inactive: 0,inactive: 0,inactive: 0,inactive: 0,inactive: 0,inactive: 0,inactive: 0,inactive: 0,inactive: 0,inactive: 0,inactive: 0
CCn1c2ccccc2c2cc(Nc3ccnc(NCCCN4CCOCC4)n3)ccc21 (2.5 µM),inactive: 0,inactive: 0,inactive: 0,inactive: 0,inactive: 0,inactive: 0,inactive: 0,inactive: 0,inactive: 0,inactive: 0,inactive: 0,inactive: 0,inactive: 0,inactive: 0,inactive: 0,inactive: 0,inactive: 0,inactive: 0,inactive: 0,inactive: 0
Cn1sc(=O)n(Cc2ccccc2)c1=O (10 µM),inactive: 0,inactive: 0,inactive: 0,inactive: 0,inactive: 0,inactive: 0,inactive: 0,inactive: 0,inactive: 0,inactive: 0,inactive: 0,inactive: 0,inactive: 0,inactive: 0,inactive: 0,inactive: 0,inactive: 0,inactive: 0,inactive: 0,inactive: 0
Cc1cccc(Cn2nc(C)c3c(NC(=O)c4csc5c(N)ncnc45)cccc32)n1 (10 µM),inactive: 0,inactive: 0,inactive: 0,inactive: 0,inactive: 0,inactive: 0,inactive: 0,inactive: 0,inactive: 0,inactive: 0,inactive: 0,inactive: 0,inactive: 0,inactive: 0,inactive: 0,inactive: 0,inactive: 0,inactive: 0,inactive: 0,inactive: 0
O=C(N/N=C/c1ccc([N+](=O)[O-])o1)c1ccc(O)cc1 [Nifuroxazide] (10 µM),inactive: 0,inactive: 0,inactive: 0,inactive: 0,inactive: 0,inactive: 0,inactive: 0,inactive: 0,inactive: 0,inactive: 0,inactive: 0,inactive: 0,inactive: 0,inactive: 0,inactive: 0,inactive: 0,inactive: 0,inactive: 0,inactive: 0,inactive: 0
CC(C)(C)S(=O)(=O)c1ccc2nccc(Nc3n[nH]c4ccc(F)cc34)c2c1 (10 µM),inactive: 0,inactive: 0,inactive: 0,inactive: 0,inactive: 0,inactive: 0,inactive: 0,inactive: 0,inactive: 0,inactive: 0,inactive: 0,inactive: 0,inactive: 0,inactive: 0,inactive: 0,inactive: 0,inactive: 0,inactive: 0,inactive: 0,inactive: 0
C[C@@]12CCc3occc3[C@H]1CC[C@@]13C[C@@H](CC[C@H]12)[C@@](O)(CO)C3 [Cafestol] (10 µM),inactive: 0,inactive: 0,inactive: 0,inactive: 0,inactive: 0,inactive: 0,inactive: 0,inactive: 0,inactive: 0,inactive: 0,inactive: 0,inactive: 0,inactive: 0,inactive: 0,inactive: 0,inactive: 0,inactive: 0,inactive: 0,inactive: 0,inactive: 0
CNS(=O)(=O)C[C@H]1CC[C@H](N(C)c2[nH]cnc3nccc2-3)CC1 [Oclacitinib (maleate)] (10 µM),inactive: 0,inactive: 0,inactive: 0,inactive: 0,inactive: 0,inactive: 0,inactive: 0,inactive: 0,inactive: 0,inactive: 0,inactive: 0,inactive: 0,inactive: 0,inactive: 0,inactive: 0,inactive: 0,inactive: 0,inactive: 0,inactive: 0,inactive: 0
Cc1nc(Nc2ncc(C(=O)Nc3c(C)cccc3Cl)s2)cc(N2CCN(C(=O)CCCCCCC(=O)N[C@H](C(=O)N3C[C@H](O)C[C@H]3C(=O)NCc3ccc(-c4scnc4C)cc3)C(C)(C)C)CC2)n1 (2.5 µM),inactive: 0,inactive: 0,inactive: 0,inactive: 0,inactive: 0,inactive: 0,inactive: 0,inactive: 0,inactive: 0,inactive: 0,inactive: 0,inactive: 0,inactive: 0,inactive: 0,inactive: 0,inactive: 0,inactive: 0,inactive: 0,inactive: 0,inactive: 0
CC[C@H](C)[C@@H]1NC(=O)[C@@H]2CCCN2C(=O)[C@@H]2CCCN2C(=O)[C@@H]2CCCN2C(=O)[C@H](CC(C)C)NC(=O)CNC(=O)CNC(=O)[C@H](Cc2ccccc2)NC1=O [Heterophyllin B] (10 µM),inactive: 0,inactive: 0,inactive: 0,inactive: 0,inactive: 0,inactive: 0,inactive: 0,inactive: 0,inactive: 0,inactive: 0,inactive: 0,inactive: 0,inactive: 0,inactive: 0,inactive: 0,inactive: 0,inactive: 0,inactive: 0,inactive: 0,inactive: 0
CN(C)CCCn1cc(C2=C(c3c[nH]c4ccccc34)C(=O)NC2=O)c2ccccc21 [Bisindolylmaleimide I] (2.5 µM),inactive: 0,inactive: 0,inactive: 0,inactive: 0,inactive: 0,inactive: 0,inactive: 0,inactive: 0,inactive: 0,inactive: 0,inactive: 0,inactive: 0,inactive: 0,inactive: 0,inactive: 0,inactive: 0,inactive: 0,inactive: 0,inactive: 0,inactive: 0
O=C(N=c1sccn1Cc1ccccc1)c1c[nH]c2ncccc12 (10 µM),inactive: 0,inactive: 0,inactive: 0,inactive: 0,inactive: 0,inactive: 0,inactive: 0,inactive: 0,inactive: 0,inactive: 0,inactive: 0,inactive: 0,inactive: 0,inactive: 0,inactive: 0,inactive: 0,inactive: 0,inactive: 0,inactive: 0,inactive: 0
COc1cc2nccc(Oc3ccc(NC(=O)Nc4ccc(F)cc4F)c(F)c3)c2cc1OC (10 µM),inactive: 0,inactive: 0,inactive: 0,inactive: 0,inactive: 0,inactive: 0,active: 1,inactive: 0,inactive: 0,inactive: 0,inactive: 0,inactive: 0,inactive: 0,inactive: 0,inactive: 0,inactive: 0,inactive: 0,inactive: 0,inactive: 0,inactive: 0

# 2 entries picked at random from those above:
SMILES,kinase-Nluc reporter destabilization hit call (PDPK1),kinase-Nluc reporter destabilization hit call (PIK4CA),kinase-Nluc reporter destabilization hit call (PIK4CB),kinase-Nluc reporter destabilization hit call (PLK1),kinase-Nluc reporter destabilization hit call (PRKAA1),kinase-Nluc reporter destabilization hit call (PRKCA),kinase-Nluc reporter destabilization hit call (PTK2),kinase-Nluc reporter destabilization hit call (PTK2B),kinase-Nluc reporter destabilization hit call (RAF1),kinase-Nluc reporter destabilization hit call [1],kinase-Nluc reporter destabilization hit call (RET),kinase-Nluc reporter destabilization hit call [2],kinase-Nluc reporter destabilization hit call (RIOK1),kinase-Nluc reporter destabilization hit call (RIPK1),kinase-Nluc reporter destabilization hit call (RIPK2),kinase-Nluc reporter destabilization hit call (ROR2),kinase-Nluc reporter destabilization hit call (RPS6KA1),kinase-Nluc reporter destabilization hit call (SPHK1),kinase-Nluc reporter destabilization hit call (SRC),kinase-Nluc reporter destabilization hit call (STK24)
Cn1sc(=O)n(Cc2ccccc2)c1=O (10 µM),inactive: 0,inactive: 0,inactive: 0,inactive: 0,inactive: 0,inactive: 0,inactive: 0,inactive: 0,inactive: 0,inactive: 0,inactive: 0,inactive: 0,inactive: 0,inactive: 0,inactive: 0,inactive: 0,inactive: 0,inactive: 0,inactive: 0,inactive: 0
CNS(=O)(=O)C[C@H]1CC[C@H](N(C)c2[nH]cnc3nccc2-3)CC1 [Oclacitinib (maleate)] (10 µM),inactive: 0,inactive: 0,inactive: 0,inactive: 0,inactive: 0,inactive: 0,inactive: 0,inactive: 0,inactive: 0,inactive: 0,inactive: 0,inactive: 0,inactive: 0,inactive: 0,inactive: 0,inactive: 0,inactive: 0,inactive: 0,inactive: 0,inactive: 0
